According to PMC4432227:
Changes are numbered by the printed parent chain. No constants are given. Whether binding was seen depends on the method and setting. Some binding calls cover weakened binding; strength is not graded here. Where a sequence is shown, tags or fusion partners need not be part of it.

Protein sequences, listed by entry. Tags and fused reporters are not part of them.
UniProt P51149: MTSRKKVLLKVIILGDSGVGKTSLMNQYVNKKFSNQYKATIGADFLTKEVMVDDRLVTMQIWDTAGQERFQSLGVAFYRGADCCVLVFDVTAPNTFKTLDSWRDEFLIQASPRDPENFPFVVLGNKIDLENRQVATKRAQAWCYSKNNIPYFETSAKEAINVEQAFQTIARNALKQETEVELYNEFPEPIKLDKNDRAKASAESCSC

How the values were obtained:
Assay in all cases: two-hybrid; S. cerevisiae AH109 co-transformants (pGBKT7 and pGADT7), grown at 30°C, replated on non-selection (+HIS) and selection (−HIS) plates
[1] = target: Rab7 (yeast two-hybrid fusion) (UniProt P51149)
[2] = target: T1, Vps41-T146P (yeast two-hybrid fusion) (human) (UniProt P49754)
T1 sequence: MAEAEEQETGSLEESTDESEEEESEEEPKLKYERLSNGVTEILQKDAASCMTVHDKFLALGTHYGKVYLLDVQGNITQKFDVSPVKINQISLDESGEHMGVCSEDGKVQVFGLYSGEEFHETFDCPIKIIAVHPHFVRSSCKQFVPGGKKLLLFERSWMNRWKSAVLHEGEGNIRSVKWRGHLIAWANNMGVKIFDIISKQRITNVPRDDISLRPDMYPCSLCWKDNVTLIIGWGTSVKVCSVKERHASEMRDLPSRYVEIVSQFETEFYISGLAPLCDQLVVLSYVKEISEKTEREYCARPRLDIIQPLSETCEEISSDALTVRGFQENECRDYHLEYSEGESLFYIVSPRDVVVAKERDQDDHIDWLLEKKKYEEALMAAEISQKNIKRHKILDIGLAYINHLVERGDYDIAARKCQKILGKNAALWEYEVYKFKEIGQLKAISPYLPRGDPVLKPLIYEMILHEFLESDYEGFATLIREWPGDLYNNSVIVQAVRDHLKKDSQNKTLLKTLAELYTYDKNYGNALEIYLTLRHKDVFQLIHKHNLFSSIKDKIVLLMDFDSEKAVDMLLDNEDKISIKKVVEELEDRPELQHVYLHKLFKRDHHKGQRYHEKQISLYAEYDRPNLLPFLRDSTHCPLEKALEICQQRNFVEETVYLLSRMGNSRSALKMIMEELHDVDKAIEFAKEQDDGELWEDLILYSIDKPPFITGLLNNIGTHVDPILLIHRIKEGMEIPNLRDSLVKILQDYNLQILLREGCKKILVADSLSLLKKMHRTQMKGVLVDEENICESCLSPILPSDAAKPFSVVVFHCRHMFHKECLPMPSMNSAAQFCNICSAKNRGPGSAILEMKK

[3] = target: T2, SKIP (yeast two-hybrid fusion) (UniProt Q8IWE5)
T2 sequence: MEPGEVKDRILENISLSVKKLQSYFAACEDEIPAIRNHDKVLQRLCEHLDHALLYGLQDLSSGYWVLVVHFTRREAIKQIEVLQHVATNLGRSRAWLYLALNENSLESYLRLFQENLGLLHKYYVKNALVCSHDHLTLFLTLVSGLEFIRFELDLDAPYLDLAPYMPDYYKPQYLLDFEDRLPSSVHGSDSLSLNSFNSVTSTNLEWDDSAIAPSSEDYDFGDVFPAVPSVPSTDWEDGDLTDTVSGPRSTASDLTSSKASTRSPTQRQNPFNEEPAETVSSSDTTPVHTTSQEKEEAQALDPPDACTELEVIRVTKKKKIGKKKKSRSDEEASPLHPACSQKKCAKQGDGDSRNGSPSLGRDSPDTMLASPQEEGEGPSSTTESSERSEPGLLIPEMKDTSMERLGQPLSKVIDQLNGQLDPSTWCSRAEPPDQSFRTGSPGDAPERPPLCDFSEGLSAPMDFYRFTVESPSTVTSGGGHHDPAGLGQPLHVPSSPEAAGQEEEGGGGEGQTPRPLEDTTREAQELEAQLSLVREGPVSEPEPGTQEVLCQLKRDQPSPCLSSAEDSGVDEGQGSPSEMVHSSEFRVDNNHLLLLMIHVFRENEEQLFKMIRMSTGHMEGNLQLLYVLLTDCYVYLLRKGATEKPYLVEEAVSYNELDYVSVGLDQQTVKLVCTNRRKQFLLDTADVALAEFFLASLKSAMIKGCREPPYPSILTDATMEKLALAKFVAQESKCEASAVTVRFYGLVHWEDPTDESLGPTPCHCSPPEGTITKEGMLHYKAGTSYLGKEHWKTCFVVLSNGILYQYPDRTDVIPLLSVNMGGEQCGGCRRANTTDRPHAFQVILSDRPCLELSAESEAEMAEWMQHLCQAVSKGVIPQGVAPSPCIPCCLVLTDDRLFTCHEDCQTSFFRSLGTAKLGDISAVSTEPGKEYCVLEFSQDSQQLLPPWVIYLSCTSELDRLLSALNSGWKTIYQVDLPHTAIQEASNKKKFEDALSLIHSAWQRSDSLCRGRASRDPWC

[4] = target: T3, hVps41 (yeast two-hybrid fusion) (human) (UniProt P49754)
T3 sequence: T1 sequence with P146T

[5] = target: T4, hVps18 (yeast two-hybrid fusion) (human) (UniProt Q9P253)
T4 sequence: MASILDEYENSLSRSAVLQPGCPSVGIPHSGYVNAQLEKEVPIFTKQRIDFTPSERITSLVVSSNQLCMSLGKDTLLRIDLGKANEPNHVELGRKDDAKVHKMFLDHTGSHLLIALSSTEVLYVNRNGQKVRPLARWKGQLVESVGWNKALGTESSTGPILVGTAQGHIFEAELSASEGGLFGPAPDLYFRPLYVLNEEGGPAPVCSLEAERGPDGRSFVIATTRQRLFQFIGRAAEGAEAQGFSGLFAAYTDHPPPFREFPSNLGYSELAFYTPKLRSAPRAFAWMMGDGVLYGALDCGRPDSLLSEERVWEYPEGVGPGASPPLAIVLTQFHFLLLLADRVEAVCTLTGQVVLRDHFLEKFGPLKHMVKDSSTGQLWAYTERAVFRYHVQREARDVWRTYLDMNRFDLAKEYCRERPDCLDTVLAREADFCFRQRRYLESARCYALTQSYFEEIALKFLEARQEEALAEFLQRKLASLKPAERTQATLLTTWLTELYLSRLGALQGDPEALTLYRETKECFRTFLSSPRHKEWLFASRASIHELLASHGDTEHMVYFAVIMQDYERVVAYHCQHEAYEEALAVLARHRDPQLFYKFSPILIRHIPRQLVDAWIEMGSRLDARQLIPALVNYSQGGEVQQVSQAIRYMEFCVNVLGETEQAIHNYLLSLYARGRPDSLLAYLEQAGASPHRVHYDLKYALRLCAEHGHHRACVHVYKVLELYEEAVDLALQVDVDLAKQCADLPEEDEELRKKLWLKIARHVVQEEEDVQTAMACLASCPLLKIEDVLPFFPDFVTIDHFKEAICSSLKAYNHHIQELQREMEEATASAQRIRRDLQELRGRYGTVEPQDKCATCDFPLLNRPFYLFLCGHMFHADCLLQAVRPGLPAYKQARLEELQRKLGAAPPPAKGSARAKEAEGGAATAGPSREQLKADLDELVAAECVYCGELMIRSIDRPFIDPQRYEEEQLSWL

[6] = target: T5, Arl8b (yeast two-hybrid fusion, Arl8b-pGBKT7), Q9NVJ2; settings: remark: other sources report otherwise
T5 chain: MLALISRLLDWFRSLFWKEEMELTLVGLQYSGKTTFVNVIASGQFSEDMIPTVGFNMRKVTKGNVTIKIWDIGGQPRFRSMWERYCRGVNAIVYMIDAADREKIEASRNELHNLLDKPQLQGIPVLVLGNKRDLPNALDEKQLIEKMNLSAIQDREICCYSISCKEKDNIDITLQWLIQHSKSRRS

B1: hVps18 (yeast two-hybrid fusion) (protein, UniProt Q9P253 1-973)
chain: T4 sequence
With B1 the binding [1] was “no binding”, the binding [2] was “binds” and the binding [3] was “no binding”. The binding [4] was “binds”.

B2: hVps16 (yeast two-hybrid fusion) (protein, UniProt Q9H269 1-839)
chain: MDCYTANWNPLGDSAFYRKYELYSMDWDLKEELRDCLVAAAPYGGPIALLRNPWRKEKAASVRPVLDIYSASGMPLASLLWKSGPVVSLGWSAEEELLCVQEDGAVLVYGLHGDFRRHFSMGNEVLQNRVLDARIFHTEFGSGVAILTGAHRFTLSANVGDLKLRRMPEVPGLQSAPSCWTVLCQDRVAHILLAVGPDLYLLDHAACSAVTPPGLAPGVSSFLQMAVSFTYRHLALFTDTGYIWMGTASLKEKLCEFNCNIRAPPKQMVWCSRPRSKERAVVVAWERRLMVVGDAPESIQFVLDEDSYLVPELDGVRIFSRSTHEFLHEVPAASEEIFKIASMAPGALLLEAQKEYEKESQKADEYLREIQELGQLTQAVQQCIEAAGHEHQPDMQKSLLRAASFGKCFLDRFPPDSFVHMCQDLRVLNAVRDYHIGIPLTYSQYKQLTIQVLLDRLVLRRLYPLAIQICEYLRLPEVQGVSRILAHWACYKVQQKDVSDEDVARAINQKLGDTPGVSYSDIAARAYGCGRTELAIKLLEYEPRSGEQVPLLLKMKRSKLALSKAIESGDTDLVFTVLLHLKNELNRGDFFMTLRNQPMALSLYRQFCKHQELETLKDLYNQDDNHQELGSFHIRASYAAEERIEGRVAALQTAADAFYKAKNEFAAKATEDQMRLLRLQRRLEDELGGQFLDLSLHDTVTTLILGGHNKRAEQLARDFRIPDKRLWWLKLTALADLEDWEELEKFSKSKKSPIGYLPFVEICMKQHNKYEAKKYASRVGPEQKVKALLLVGDVAQAADVAIEHRNEAELSLVLSHCTGATDGATADKIQRARAQAQKK
In the case of B2, the binding [1] is reported as “no binding”, the binding [5] is reported as “binds” and the binding [3] is reported as “no binding”.

B3: hVps18 (yeast two-hybrid fusion), Q9P253 1-973 (protein)
chain: T4 sequence
B3 was tested, and the binding [6] was “no binding”.
